According to PubChem BioAssay AID296 (DTP/NCI, 2004):
The list shows only some results of the screen, not a fair sample: it gathers tests that were run many times, whatever their T/C, doses with no T/C, and many T/C values between a quarter and a half above the control. Further doses and runs are listed elsewhere. T/C is the treated group as % of the vehicle group. Schedule codes are those of the source, taken here to give the interval after Q, in days (D) or hours (H), and the number of doses after X. Some entries hold several experiments; the values are given in rising order. Some T/C values carry the count of animals alive at the toxicity check (mostly the fifth day); without a count, all were alive then. Some doses have a count of surviving animals in place of a T/C: the source files T/C as zero there, which appears to mark a toxic dose or a test without result, not a measured value. Survivors were counted at the toxicity check, usually on the fifth day, unless a day is given; later deaths do not show.

System: MX-1 breast xenograft, nude mice, tumor weight T/C
Test: NCI In Vivo Anticancer Drug Screen. Data for tumor model Human Mammary Carcinoma MX-1 Xenograft (intrarenal inoculation) in NU/NU Swiss (nude) mice
Settings: T/C endpoint: mean tumor weight change, higher T/C = larger tumour; for T/C: evaluated on day 11
Procedure: The antitumor activity of compounds was measured in mice bearing transplantable tumors. Survival or tumor size were measured and the results are expressed as the measurement made in the treated group (T) divided by the measurement made in the vehicle treated control group (C). The tumor model used in this assay is Human Mammary Carcinoma MX-1 Xenograft (intrarenal inoculation) in NU/NU Swiss (nude) mice

[1] = dose: 300.0 mg/kg/injection, schedule: Q04DX003 (sc), vehicle: Klucel (hydroxypropylcellulose) (HPC)
[2] = dose: 600.0 mg/kg/injection, schedule: Q04DX003 (sc), vehicle: Klucel (hydroxypropylcellulose) (HPC)
[3] = dose: 25.0 mg/kg/injection, schedule: Q04DX003 (sc), vehicle: suspension in saline
[4] = dose: 50.0 mg/kg/injection, schedule: Q04DX003 (sc), vehicle: suspension in saline
[5] = dose: 100.0 mg/kg/injection, schedule: Q04DX003 (sc), vehicle: suspension in saline

Compound: C=C1C(=O)O[C@@H]2[C@H](O)[C@@H](C)[C@@H]3C=CC(=O)[C@@]3(C)[C@H](OC(=O)C=C(C)C)[C@H]12
- survivor count (dose: 75.0 mg/kg/injection, schedule: Q04DX003 (sc), vehicle: saline with Tween-80): 1 of 6 on day 11

Compound: CCN1/C(=C/C=C/C=C/c2sc3ccccc3[n+]2CC)Sc2ccccc21
- survivor count (dose: 12.0 mg/kg/injection, schedule: Q04DX003 (sc), vehicle: suspension in saline): 2 of 6 on day 11

Compound: COC(=O)C[C@](O)(CCC(C)(C)O)C(=O)O[C@@H]1C(OC)=C[C@]23CCCN2CCc2cc4c(cc2[C@H]13)OCO4
- survivor count (dose: 2.5 mg/kg/injection, schedule: Q04DX003 (sc), vehicle: saline): 3 of 6 on day 11
- survivor count (dose: 5.0 mg/kg/injection, schedule: Q04DX003 (sc), vehicle: saline): 1 of 5 on day 11
- survivor count (dose: 10.0 mg/kg/injection, schedule: Q04DX003 (sc), vehicle: saline): 0 of 6 on day 11
- survivor count (dose: 20.0 mg/kg/injection, schedule: Q04DX003 (sc), vehicle: saline): 0 of 6 on day 11

Compound: O=C(O)C1CC(c2ccccc2)=NN1c1ccccc1 (stereo not drawn)
- T/C (dose: 100.0 mg/kg/injection, schedule: Q04DX003 (sc), vehicle: water): 144 % of control
- survivor count (dose: 800.0 mg/kg/injection, schedule: Q04DX003 (sc), vehicle: water): 0 of 6 on day 11

Compound: NC(=S)N/N=C/c1ccc(OC(=O)COc2ccccc2)cn1
- survivor count (dose: 2400.0 mg/kg/injection, schedule: Q04DX003 (sc), vehicle: saline with Tween-80): 1 of 6 on day 11

Compound: Cn1cc(C2NC(=O)c3ccccc3N2)c2ccccc21 (stereo not drawn)
- T/C [1]: 135 % of control
- T/C [2]: 133 % of control

Compound: CC[n+]1c(-c2ccccc2)c2cc(N)ccc2c2ccc(N)cc21
- survivor count (dose: 120.0 mg/kg/injection, schedule: Q04DX003 (sc), vehicle: saline): 3 of 6 on day 11

Compound: O=C(Nc1ccccc1C(=O)O)c1cc([N+](=O)[O-])cc([N+](=O)[O-])c1
- T/C (dose: 400.0 mg/kg/injection, schedule: Q04DX003 (sc), vehicle: saline with Tween-80): 134 % of control
- survivor count (dose: 800.0 mg/kg/injection, schedule: Q04DX003 (sc), vehicle: saline with Tween-80): 0 of 6 on day 11

Compound: O=C(/C=C(\Cl)C(=O)NO)NO
- survivor count (dose: 400.0 mg/kg/injection, schedule: Q04DX003 (sc), vehicle: saline): 0 of 6 on day 11

Compound: COc1cccc2c1C(=O)c1c(O)c3c(c(O)c1C2=O)C[C@@](O)(C(C)=O)C[C@@H]3OC1CC(N)C(O)C(C)O1 (stereo partly drawn)
- T/C (dose: 1.0 mg/kg/injection, schedule: Q01DX010 (sc), vehicle: saline): 138 % of control
- survivor count (dose: 8.0 mg/kg/injection, schedule: Q01DX010 (sc), vehicle: saline): 1 of 3 on day 11
- survivor count (dose: 16.0 mg/kg/injection, schedule: Q01DX010 (sc), vehicle: saline): 0 of 3 on day 11

Compound: CC1=CC2c3cccc4[nH]cc(c34)CC2N(C)C1 (stereo not drawn)
- survivor count [3]: 3 of 6 on day 11
- survivor count [4]: 0 of 6 on day 11
- survivor count [5]: 0 of 6 on day 11

Compound: O=c1[nH]cc(F)c(=O)[nH]1
- T/C [3]: 81, 83, 102, 104 % of control
- survivor count (dose: 40.0 mg/kg/injection, schedule: Q01DX010 (sc), vehicle: saline): 0 of 3 on day 11 and 1 of 3 on day 11
- T/C [4]: 41, 47, 66, 69 % of control
- survivor count (dose: 80.0 mg/kg/injection, schedule: Q01DX010 (sc), vehicle: saline): 0 of 3 on day 11
- survivor count (dose: 100.0 mg/kg/injection, schedule: Q04DX003 (sc), vehicle: saline): 0 of 6 on day 11 and 1 of 6 on day 11
- T/C [5]: 44 [4 of 6 alive on day 11] and 61 % of control
- survivor count [5]: 0 of 6 on day 11 and 2 of 6 on day 11
- survivor count (dose: 200.0 mg/kg/injection, schedule: Q04DX003 (sc), vehicle: saline): 0 of 6 on day 11 and 1 of 6 on day 11
- survivor count (dose: 200.0 mg/kg/injection, schedule: Q04DX003 (sc), vehicle: suspension in saline): 0 of 6 on day 11 and 3 of 6 on day 11

Compound: NC(CNC(=O)CBr)C(=O)O (stereo not drawn)
- survivor count (dose: 200.0 mg/kg/injection, schedule: Q04DX003 (sc), vehicle: water): 1 of 6 on day 11
- survivor count (dose: 300.0 mg/kg/injection, schedule: Q04DX003 (sc), vehicle: water): 0 of 6 on day 11

Compound: C=C(Cl)C(=NC(C)(C)C)Nc1ccccc1C
- T/C (dose: 150.0 mg/kg/injection, schedule: Q04DX003 (sc), vehicle: Klucel (hydroxypropylcellulose) (HPC)): 145 % of control [4 of 6 alive on day 11]
- T/C [1]: 137 % of control [4 of 6 alive on day 11]
- survivor count [2]: 1 of 6 on day 11

Compound: Cn1ccc(=Nc2ccc(NC(=O)c3ccc(N=c4ccn(C)c5ccc([N+](=O)[O-])cc45)cc3[N+](=O)[O-])cc2)cc1
- T/C (dose: 600.0 mg/kg/injection, schedule: Q04DX003 (sc), vehicle: saline + Tween-80 + alcohol): 146 % of control

Compound: Cc1ccc(NN=O)nc1
- survivor count (dose: 75.0 mg/kg/injection, schedule: Q04DX003 (ip), vehicle: water): 0 of 6 on day 11
- survivor count (dose: 150.0 mg/kg/injection, schedule: Q04DX003 (ip), vehicle: water): 0 of 6 on day 11

Compound: O=C(O)c1ccc(C(=O)O)c(C(=O)O)c1.[NH-]C1CCCCC1[NH-].[Pt+2]
- survivor count (dose: 12.5 mg/kg/injection, schedule: Q01DX010 (sc), vehicle: sodium bicarbonate): 0 of 5 on day 11 and 1 of 6 on day 11
- survivor count (dose: 25.0 mg/kg/injection, schedule: Q01DX010 (sc), vehicle: sodium bicarbonate): 0 of 6 on day 11

Compound: CC(=O)OCC1OC(n2cc(CBr)nn2)C(OC(C)=O)C(OC(C)=O)C1OC(C)=O (stereo not drawn)
- T/C (dose: 25.0 mg/kg/injection, schedule: Q01DX010 (sc), vehicle: saline with Tween-80): 128 % of control
- T/C (dose: 50.0 mg/kg/injection, schedule: Q01DX010 (sc), vehicle: saline with Tween-80): 131 % of control
- T/C (dose: 200.0 mg/kg/injection, schedule: Q01DX010 (sc), vehicle: saline with Tween-80): 132 % of control [5 of 6 alive on day 11]

Compound: Nc1cccc(=O)[nH]1
- survivor count (dose: 2400.0 mg/kg/injection, schedule: Q04DX003 (sc), vehicle: saline): 0 of 6 on day 11

Compound: Cc1c(N)nc(C(CC(N)=O)NCC(N)C(N)=O)nc1C(=O)NC(C(=O)NC(C)C(O)C(C)C(=O)NC(C(=O)NCCc1nc(-c2nc(C(=O)NCCCNC(C)c3ccccc3)cs2)cs1)C(C)O)C(OC1OC(CO)C(O)C(O)C1OC1OC(CO)C(O)C(OC(N)=O)C1O)c1cnc[nH]1 (stereo not drawn)
- T/C (dose: 4.0 mg/kg/injection, schedule: Q01DX010 (sc), vehicle: saline): 141 % of control

Compound: CC(=O)NCCCCCCNC(C)=O
- T/C (dose: 400.0 mg/kg/injection, schedule: Q01DX010 (sc), vehicle: saline): 141 % of control
- T/C (dose: 800.0 mg/kg/injection, schedule: Q01DX010 (sc), vehicle: saline): 130 % of control

Compound: O=C1CN(CO)C(=O)N1CO
- T/C (dose: 50.0 mg/kg/injection, schedule: Q04DX003 (ip), vehicle: saline): 139 % of control
